## Library screening results

Chains of the proteins cited; added tags and fusions are not shown.
UniProt E9BF75, entry or part of it: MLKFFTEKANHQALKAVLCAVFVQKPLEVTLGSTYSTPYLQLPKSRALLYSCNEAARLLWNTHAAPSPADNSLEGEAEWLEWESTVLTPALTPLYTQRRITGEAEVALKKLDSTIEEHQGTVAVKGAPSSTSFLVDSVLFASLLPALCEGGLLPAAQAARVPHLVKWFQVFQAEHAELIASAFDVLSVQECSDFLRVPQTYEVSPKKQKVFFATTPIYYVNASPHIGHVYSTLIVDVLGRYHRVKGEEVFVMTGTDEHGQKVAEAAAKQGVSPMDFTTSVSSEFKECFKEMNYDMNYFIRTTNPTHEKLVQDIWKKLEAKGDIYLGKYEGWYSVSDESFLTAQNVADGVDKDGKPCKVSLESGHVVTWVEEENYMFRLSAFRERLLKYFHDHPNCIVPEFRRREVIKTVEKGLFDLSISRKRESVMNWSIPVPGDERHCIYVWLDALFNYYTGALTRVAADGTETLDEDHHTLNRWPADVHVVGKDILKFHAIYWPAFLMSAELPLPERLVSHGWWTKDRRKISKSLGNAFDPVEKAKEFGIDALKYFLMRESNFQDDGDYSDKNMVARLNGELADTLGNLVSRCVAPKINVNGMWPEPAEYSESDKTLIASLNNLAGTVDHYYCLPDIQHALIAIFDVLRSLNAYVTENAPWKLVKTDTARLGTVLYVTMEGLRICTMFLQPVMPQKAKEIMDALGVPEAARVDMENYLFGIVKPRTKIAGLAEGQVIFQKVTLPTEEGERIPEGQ

Source: ChEMBL document CHEMBL3988442, “University of Dundee, Small-Polar-MMV Screening Library” (2021).

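Methionyl-tRNA synthetase (putative), Leishmania donovani (UniProt E9BF75). Primary screen of methionyl-tRNA synthetase; the read-out is not stated. The test concentration is not given. The values are filed as inhibition. Of about 68,000 compounds tested this way, about 24 (0.035%) reached 50% or more in at least one test.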

Results are percentages, as filed.
The record does not define 0% and 100%; most values in the screen are far below 50% and negative numbers occur (in some assays of this library far below -100).
Compounds were drawn at random from those tested, without regard to their results.

| Compound | inhibition |
|---|---|
| `CCn1nccc1CNC(=O)C1CCCO1` (centres unmarked) | 0.7444% |
| `Cn1ccc2c(-c3cc(N4CCCCC4)ncn3)ccnc21` | 18.92% |
| `Cc1c(C(=O)NCC(C)C)nnn1-c1cccc2c1CCN(C(C)C)C2` | 16.45% |
| `COCCCn1ccc(NC2CCOCC2)n1` | 1.099% |
| `O=C(O)c1nnn(Cc2ccc(F)cc2)c1-c1cccnc1` | -8.571% |
| `CN1CCN(c2ccc(F)cc2NC(=O)NCCn2ccnc2)CC1` | 15.41% |
| `Cc1nn(C)c(N(C)C)c1CNCc1ccccc1Cn1ccnc1` | 9.456% |
| `CC(=O)N(CCc1ccccc1)CC(=O)NC(C)(C)C#N` | 10.56% |
| `Cc1nc(C)c2c(n1)CCN(C(=O)CC1CC1)CC2` | 12.46% |
| `CC(C)=CCC1(C(=O)O)CCCN(c2ccnc(N)n2)C1` (centres unmarked) | 15.62% |
| `CS(=O)(=O)CCC(=O)Nc1nccn1Cc1ccccc1Cl` | 11.2% |
| `COc1ccc(C(=O)Nc2cccc(SC)c2)c(OC)n1` | -3.056% |
| `CCc1nc(C2CCCN2C(=O)c2c[nH]c(C)n2)no1` (centres unmarked) | 13.99% |
| `Cc1nc(C)n(CC2CN(c3nnc(C)c(C)c3C#N)CCO2)n1` (centres unmarked) | 19.39% |
| `O=C1N(Cc2ccncc2)CCC12CCCN(c1ncc(F)cn1)C2` (centres unmarked) | 1.093% |
| `Cc1ccc(CN2CC[C@@H]3CN(S(C)(=O)=O)CCO[C@@H]3C2)o1` | 6.574% |
| `O=C(COc1coc(CN2CCCCC2)cc1=O)Nc1cccc(Cl)c1` | 18.48% |
| `CN1CCN(CC2CC2)C(=O)c2cnc(N3CCCCC3)nc21` | 3.497% |
| `CSc1ccccc1C(=O)C1CCCN(Cc2cc(C(C)C)[nH]n2)C1` (centres unmarked) | 11.38% |
| `c1cc(CN2CCC3(CCOCC3COCC3CC3)CC2)ccn1` (centres unmarked) | 11.11% |
| `O=C(CN1CC(n2cccn2)C1)NCCc1ccc(F)cc1` | 29.44% |
| `CC(=O)N1N=C(c2ccccc2)OC1C(=O)NCCc1cccc(F)c1` (centres unmarked) | 0.2778% |
| `Cc1cc(CNC(=O)C(c2ccc(F)cc2)N(C)C)n[nH]1` (centres unmarked) | 14.83% |
| `Cc1cc(N[C@H]2CN(CC(C)(C)N3CCOCC3)C[C@@H]2C2CC2)ncn1` | 5.584% |
| `CN(C)C(CNC(=O)c1nc(N2CCCC2)ncc1Cl)c1ccco1` (centres unmarked) | 11.62% |
| `CCc1nnc2n1CCN(C(=O)C(OC)c1ccccc1)C2` (centres unmarked) | -0.2688% |
| `COCCC(=O)NC(C)(C(N)=O)c1cccc(Cl)c1` (centres unmarked) | 16.52% |
| `O=C(C1CCOC1)N1CCc2ncnc(NC3CCC3)c2CC1` (centres unmarked) | 7.534% |
| `COC(=O)C1=C(C)N=C2SCC(=O)N2C1c1cn(C)nc1C` (centres unmarked) | 5.222% |
| `CC(C)CN1C(=O)CC[C@H]2CN(C(=O)c3ncc[nH]3)CC[C@H]21` | 3.476% |
| `Cc1ccc(N2CCO[C@H]3CN(Cc4ccoc4)C[C@H]32)nn1` | -2% |
| `Cc1nc(N(C)C)ncc1C(=O)NCCCn1nccc1C1CC1` | -2.439% |
| `CCc1nc(C2CCCN(C(=O)c3cccc(Cl)c3)C2)no1` (centres unmarked) | 18.78% |
| `Cc1cnc(CNC(=O)NC2CCCN(c3ccccc3F)C2)s1` (centres unmarked) | 7.337% |
| `COCC(=O)Nc1ccc(C)cc1-c1nc(C2CC2)no1` | 20.16% |
| `CCCN1C[C@H]2CC[C@@H]1CN(Cc1cccc(-n3cccn3)c1)C2` | 15.85% |
| `Cc1nc(Cn2c3c(ccc2=O)CCN(CC2CC2)CC3)cs1` | 13.59% |
| `Cn1ccnc1CN1CCCN(C(=O)COC2CCCCC2)CC1` | 6.017% |
| `CCn1cnnc1C1CCN(C(=O)c2cc(C)c(C)s2)CC1` | 11.73% |
| `Cc1ccn2c(F)c(C(=O)N3CCC4(CCC(=O)N(C)C4)CC3)nc2c1` | 13.56% |
| `Cc1cccc(CC2COCCN(Cc3nccn3C)C2)n1` (centres unmarked) | 12.94% |
| `COc1ccccc1C(C)(C)NCc1ccc(C)o1` | -3.308% |
| `CC(C)CCn1c(=O)nc2n1C(=O)N(c1ccc(F)cc1)C2` | 0% |
| `Cc1nn(CCC#N)c(C)c1CCC(=O)N(C(C)C)C1CC1` | -0.2545% |
| `CCc1nccn1C1CCCN(C(=O)c2ccc(C(=O)NC)nc2)C1` (centres unmarked) | 8.502% |
| `CN(C)CCCNC(=O)c1cnc(Cc2ccc(F)cc2)s1` | 12.2% |
| `c1cc(CN2CCCn3nnc(COCC4CC4)c3C2)ccn1` | 13.19% |
| `Cn1ccnc1CN1CCC(F)(F)C2(CCN(c3cnccn3)C2)C1` (centres unmarked) | 0.2208% |
| `Cc1cc(C)c2nc(C)cc(C(=O)N3CC(O)CO3)c2c1` (centres unmarked) | 3.217% |
| `Cc1n[nH]c(C)c1S(=O)(=O)N(C)Cc1nn(C)c(Cl)c1Cl` | 9.023% |
| `Cc1ccc(CNC(=O)NCC(=O)N2CCCC2)c(N2CCCC2)c1` | 7.796% |
| `CCCNc1ncc(C2CC(=O)NCc3nc4ccccn4c32)cn1` (centres unmarked) | 6.593% |
| `Cc1csc2c(C3CCCN(C(=O)Cn4cncn4)C3)nc(C)n12` (centres unmarked) | 11.11% |
| `Oc1cccc(CNCCC2CCCO2)c1` (centres unmarked) | 10.68% |
| `COc1cc(Cl)ccc1CNC(=O)N(C)C(C)CS(C)(=O)=O` (centres unmarked) | 18.12% |
| `COCC(=O)NCc1cccc(Br)c1` | 7.143% |
| `CN1CCC2(CC1)CN(C(=O)c1onc3ccccc13)CCCN2C` | 10.9% |
| `O=C(CCc1cc(O)no1)N1CCCC(OCc2cccnc2)C1` (centres unmarked) | 12.26% |
| `CO[C@H]1CN(S(=O)(=O)c2cn(C)cn2)[C@@H]2CCCO[C@H]12` | 12.24% |
| `CC(C)(C)c1n[nH]c(C2CN(Cc3nnc(C4CCC4)o3)CCO2)n1` (centres unmarked) | 10.42% |
| `CC(C)N(C)Cc1n[nH]c2c1CCN(C(=O)c1ccc[nH]1)C2` | 15.34% |
| `O=C(Cc1csc(-c2ccccn2)n1)NCCCN1CCCCCC1=O` | 7.186% |
| `Cc1cc(C)c(CNC(=O)N(C)Cc2ccoc2)c(=O)[nH]1` | 16% |
| `COc1cc(F)cc2sc(NC(=O)COCC3CCCO3)nc12` (centres unmarked) | 3.073% |
| `CSc1c[nH]nc1NS(=O)(=O)c1cc(F)ccc1Cl` | 8.059% |
| `O=C(NC[C@H]1OC[C@@H](NCc2ccc(F)cc2)[C@@H]1O)c1ccncc1` | 10.53% |
| `CCS(=O)(=O)CC(=O)NC(c1ccc(F)cc1)C1CCCC1` (centres unmarked) | 10.56% |
| `Cc1csc(CNC(=O)Cc2ccc3c(c2)OCCO3)n1` | 12.71% |
| `c1coc(CN2C[C@@H]3CN(Cc4ccoc4)CCO[C@@H]3C2)c1` | 8.791% |
| `Cc1cc(C2CCCN(CCc3ccccn3)C2)n[nH]1` (centres unmarked) | -3.286% |
| `Cc1ccc(C2CCCCCN2CCCS(C)(=O)=O)o1` (centres unmarked) | 16.43% |
| `COc1ccc(CN(CCC#N)CCN2CCOCC2)c(OC)c1` | 7.527% |
| `CSc1ccccc1C(=O)NCCC(O)c1ccco1` (centres unmarked) | 0.7194% |
| `O=c1c2c(ncn1CCCO)nc1n2CCC1` | 17.29% |
| `O=C1CC[C@H]2[C@H](CCN2C(=O)C2CCOCC2)N1Cc1ccncc1` | 12.03% |
| `Cc1nc(CNC(=O)C(C)Oc2ccccc2F)no1` (centres unmarked) | 7.188% |
| `Cc1ccc(CN(C)C(C(=O)O)c2ccc3c(c2)OCO3)o1` (centres unmarked) | 14.36% |
| `CC(C)(C)CN(CCC#N)C(=O)Nc1cccc(N2CCNC2=O)c1` | 20.21% |
| `Cc1cc(C2CCCN(CCNS(=O)(=O)c3ccccc3)C2)n[nH]1` (centres unmarked) | 12.22% |
| `COc1ccc(C2CN(c3nc(C)cc(C)n3)CCN2C(C)=O)cc1` (centres unmarked) | 6.562% |
| `O=C(NCC1(O)CCc2ccccc21)Nc1ccc2c(c1)OCO2` (centres unmarked) | 10.56% |
| `O=C(COCc1ccccc1Cl)N1CCCC(n2ccnc2)C1` (centres unmarked) | 6.557% |
| `CCc1nc(CCNc2ncccc2S(N)(=O)=O)sc1C` | 22.05% |
| `CC1CN(C)c2ccccc2CN1C(=O)c1ccncc1F` (centres unmarked) | 9.03% |
| `O=C(NCCO)c1ccn(-c2ccc3ccccn23)n1` | 8.155% |
| `CC(C)Nc1nnc(SCc2nnc(C(C)(C)C)o2)s1` | 7.283% |

Some entries from above, unchanged:

For CC(C)(C)c1n[nH]c(C2CN(Cc3nnc(C4CCC4)o3)CCO2)n1 (centres unmarked) the result was 10.42%.
For Cc1cc(N[C@H]2CN(CC(C)(C)N3CCOCC3)C[C@@H]2C2CC2)ncn1 the result was 5.584%.
For CCn1cnnc1C1CCN(C(=O)c2cc(C)c(C)s2)CC1 the result was 11.73%.
For Cc1nn(C)c(N(C)C)c1CNCc1ccccc1Cn1ccnc1 the result was 9.456%.
For CSc1c[nH]nc1NS(=O)(=O)c1cc(F)ccc1Cl the result was 8.059%.
For Oc1cccc(CNCCC2CCCO2)c1 (centres unmarked) the result was 10.68%.